From patent US8569229B2, “Compositions and methods which modulate G-protein signaling for the treatment of inflammatory disorders such as asthma and allergic conjunctivitis” (The Children's Hospital of Philadelphia, priority 2008, dated 2013)
“Also recorded” adds a separate entry of the source. For at least one compound, name, drawing or mass did not settle the structure.

Legend:
ERK1/2 = experiment: Immunoblot analysis of ERK1/2 phosphorylation in ASM cells; format: cell-based, human
Description: (§1) Detection of PDE4D5 mRNA transcripts: Total RNA was extracted from the cultured ASM cells using the TRIzol method (Invitrogen), and cDNAs were isolated by RT-PCR using the SuperScript First Strand Synthesis System kit from Invitrogen, with the following oligonucleotide primer sets (Integrated DNA Technologies): for PDE4D5, 5′-[…]-3′ (forward; SEQ ID NO: 2) and 5′-[…]-3′ (reverse; SEQ ID NO: 3); and for β-actin, 5′-[…]-3′ (forward; SEQ ID NO: 4) and 5′-[…]-3′ (reverse; SEQ ID NO: 5). The reaction volume was 20 μl and cycling conditions used were 35 cycles of 30 sec denaturation at 95° C., followed by 30 sec annealing at 60° C. and elongation at 72° C. for 30 sec. Ex-Tag (Takara Biotechnology) was used as DNA polymerase. […] The membranes were then incubated overnight with monoclonal mouse anti-human primary antibodies directed against phospho-CREB and -ATF1, phospho-ERK1/2, or α-actin, and levels were detected by ECL after a 1-hr incubation with a 1:2,000 dilution of HRP-conjugated rabbit anti-mouse secondary antibody, followed by exposure to autoradiography film. The protein band intensities were quantified by densitometry. siRNA-mediated knockdown of PKA: ASM cells were seeded into 6-well plates and, at ˜40% confluency, the medium was replaced with the reduced serum-containing medium, Opti-MEM (Invitrogen). […] Statistical analyses: Results are expressed as mean±SE values. […]

CREB/ATF1 = experiment: Immunoblot analysis of CREB/ATF1 phosphorylation in ASM cells; format: cell-based, human; conditions: PGE2 100 nM, 30 min
Description: as §1

PDE4D5 mRNA = experiment: Detection of PDE4D5 mRNA transcripts by RT-PCR in ASM cells; format: cell-based, human; conditions: 6 hr
Description: as §1

OVA-sensitized rabbits [1] = experiment: In vivo bronchoconstrictor responses to methacholine (Rrs) in OVA-sensitized, OVA-challenged rabbits; set-up: species or system rabbit; conditions: 1 mg/Kg by nebulizer 2 hr prior to OVA challenge; measured 24 hr after challenge
Experimental: (§2) Both the OVA sensitized and control animals were then challenged with either vehicle (saline) or aerosolized OVA delivered via a nebulizer. The following day, while mechanically ventilated under general anesthesia/paralysis, the rabbits' broncho-constrictor responses to intravenous (i.v.) bolus injections of cumulatively increasing doses of methacholine (MCh) were determined and induced changes in respiratory system resistance (Rrs), measured as previously described (Grunstein et al. J. Appl. Physiol: […]. Environ. Exercise Physiol. 57:1238-1246, 1984). Lung lavage was then performed to obtain bronchoalveolar lavage fluid (BALF) samples, and the lungs were excised for histological examination in H&E-stained paraffin-embedded 4 micron sections.

OVA-sensitized rabbits [2] = experiment: Lung histopathology in OVA-sensitized, OVA-challenged rabbits; format: in vivo, rabbit; conditions: pretreated OVA-sensitized+OVA challenged rabbits
Experimental: as §2

human ASM cells = experiment: Assay of cAMP PDE activity in ASM cell lysates; format: cell-based; conditions: cells exposed 24 hr to the agent
Experimental: Assay of cAMP PDE activity: Levels of cAMP PDE activity were assayed in ASM cell lysates using a colorimetric, non-radioactive enzymatic assay kit from Biomol, as per the manufacture's protocol. PDE activity was determined following exposure of ASM cells for 24 hr to either vehicle alone (control), PGE2 (100 μM), or forskolin (100 μM) in the absence and presence of pretreatment with rolipram (10 μM), cycloheximide (100 μM), actinomycin D (4 μM), or H89 (10 μM).
In each case, the measured levels of PDE activity were standardized to the protein content in the cell extracts.

rabbit ASM tissues [3] = experiment: Relaxation responsiveness to isoproterenol in isolated rabbit ASM tissues half-maximally contracted with ACh; conditions: tissues exposed 24 hr to the agent
Description: as §1

rabbit ASM tissues [4] = experiment: Constrictor responsiveness to acetylcholine (ACh) in isolated rabbit ASM tissues, isometric tension in organ bath; conditions: tissues exposed 24 hr to the agent
Description: as §1

Q: Which “effect on PGE2-induced phosphorylation of ERK1/2” value (ERK1/2; PGE2 100 nM, 30 min) does the source give for Oc1c2ccccc2c2c3c(cccc13)N=N2 [SP600125] here?
A: Its value is “neither PGE2-induced phosphorylation of ERK1/2 nor CREB/ATF was affected”.

Q: And the “effect on PGE2-induced phosphorylation of CREB/ATF1” value (CREB/ATF1)?
A: The value was “neither PGE2-induced phosphorylation of ERK1/2 nor CREB/ATF was affected”.

Q: And the “effect of pretreatment on PGE2-induced upregulated PDE4D5 mRNA expression” value (PDE4D5 mRNA; PGE2 100 nM)?
A: The value was “neither the p38 MAPK nor JNK inhibitor (lanes 5 and 6, respectively) had an attenuating effect”.

Q: And the “effect of pretreatment on β2AR agonist (isoproterenol)-induced upregulated PDE4D5 mRNA expression” value (PDE4D5 mRNA; isoproterenol 10 μM)?
A: The value was “unaffected”.

Q: With CCCC1O[C@@H]2C[C@H]3[C@@H]4CCC5=CC(=O)C=C[C@]5(C)[C@H]4[C@@H](O)C[C@]3(C)[C@]2(C(=O)CO)O1 (stereo partly shown) [budesonide] as the compound, how does the “effect on airway constrictor hyper-responsiveness (Rrs responses to MCh)” value (OVA-sensitized rabbits [1]) read?
A: Its value is “largely abrogated; also recorded: prevented to a similar degree”.

Q: What about the “effect on pulmonary inflammatory response (peribronchial and parenchymal inflammatory cell infiltration)” value (OVA-sensitized rabbits [2]) of the same compound?
A: The value was “markedly suppressed to a similar extent; also recorded: markedly suppresses”.

Q: How did the “ERK1/2 phosphorylation in cells treated with the agent” value (ERK1/2; PGE2 or forskolin 100 nM, isoproterenol or salmeterol 10 μM) turn out when C=C[C@@]1(C)CC(=O)[C@]2(O)[C@@]3(C)[C@@H](O)CCC(C)(C)[C@@H]3[C@H](O)[C@H](OC(C)=O)[C@@]2(C)O1 [forskolin] was run?
A: Its value is “elicit ERK1/2 phosphorylation; also recorded: induced phosphorylation of ERK1/2”.

Q: And the “cAMP PDE (PDE4) activity relative to vehicle-treated control cells” value (human ASM cells)?
A: The value was “significantly increased”.

Q: What about the “relaxation responsiveness to isoproterenol relative to vehicle-treated controls” value (rabbit ASM tissues [3]) of the same compound?
A: Its value is “impaired relaxation responsiveness”.

Q: And the “constrictor responsiveness to ACh relative to vehicle-treated controls” value (rabbit ASM tissues [4])?
A: The value was “significant increases”.
